# Laboratory results published in publication PMC12056667 (Chemical Science, 2025).
# By UniProt entry, the sequences of proteins in these tests, tags left out.
# UniProt A0A3T0V9Y5, entry or part of it: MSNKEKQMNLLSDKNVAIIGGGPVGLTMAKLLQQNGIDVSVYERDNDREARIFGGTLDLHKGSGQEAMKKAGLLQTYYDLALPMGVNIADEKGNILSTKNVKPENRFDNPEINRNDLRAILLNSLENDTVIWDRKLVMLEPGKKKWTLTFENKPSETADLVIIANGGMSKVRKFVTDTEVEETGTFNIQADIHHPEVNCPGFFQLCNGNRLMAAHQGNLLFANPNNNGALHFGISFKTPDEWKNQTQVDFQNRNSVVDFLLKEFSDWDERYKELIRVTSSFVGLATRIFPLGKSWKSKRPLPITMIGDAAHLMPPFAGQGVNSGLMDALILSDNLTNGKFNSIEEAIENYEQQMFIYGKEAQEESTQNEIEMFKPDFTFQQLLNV
# Assays:
# Tet(X4) [1] = target: T1, Tet(X4) (Escherichia coli, UniProt A0A3T0V9Y5); assay: biochemical; conditions: IC50, UPLC assay
# Source text: We then tested the binding of reported type 1 TDase inhibitors to Tet(X4) (Fig. 3f, ESI Fig. S17 ^†).[33,38,39] […] These compounds gave similar apparent IC50^app values, in accord with trends in IC50 measurements performed by Markley et al.[33] […] We also developed a complementary endpoint activity assay where the turnover of tigecycline by Tet(X4) in a 96-well plate was quenched by addition of 1%v/v formic acid and analysed chromatographically. The peak integrals of tigecycline and its hydroxylated degradation product at 254 nm following UPLC analysis were measured to determine turnover (Fig. 5a). As this method separates components by chromatography, it enables IC50 measurements independent of potential interference from UV-active inhibitors (Fig. 5b). […]
# […] Samples were analysed using an ACQUITY H-Class PLUS UPLC instrument (Waters) equipped with a pre-equilibrated ACQUITY BEH C18 column ([…], […], Waters) using a gradient of 1–50%v/v acetonitrile with 0.1%v/v formic acid in water with 0.1%v/v formic acid over 1.83 minutes at a flow rate of 0.5 mL min^−1. […] The normalised % response was plotted as a function of log10[Inhibitor], and the IC50 determined as described above.
# Tet(X4) [2] = target: T1, Tet(X4); assay: FP competitive displacement of probe 6; format: binding; conditions: IC50app, Tet(X4) (Polarization), 25 nM 6, 40 nM Tet(X4), 5 mM MgCl2, 1 μM FAD, 100 mM Tris pH 7.0, 0.01% Triton X-100
# Description: A 2× solution containing 80 nM Tet(X4), 2 μM FAD and 10 mM MgCl2 in the assay buffer was dispensed into the first 22 columns of a 384-well black, non-binding microtiter plate (Greiner Bio-One), 12.5 μL per well, using a microplate reagent dispenser. A solution of 2 μM FAD and 10 mM MgCl2 in the assay buffer was dispensed into the remaining columns to serve as a no enzyme control. A 3-fold, 10-point dilution series of substrates and inhibitors was made in DMSO in a V-bottom 96-well plate (Greiner Bio-One) with a highest concentration of 5 mM or 0.5 mM. Into one column was added DMSO with no inhibitor or substrate, to serve as a positive control. Tigecycline was included as a reference on every plate to ensure reproducibility. […] Normalised % response was plotted as a function of log10([Inhibitor]), and the IC50^app was determined by fitting the data to the equation: Y = Bottom + (top-bottom)/(1 + 10^Log(IC50) − X) × HillSlope in GraphPad Prism 9.4.1, where Y = % response and X = log10([Inhibitor]). Wells with unusual fluorescence intensities were manually identified and removed from the analysis.
# […] One technical replicate was performed for each compound; hits identified were retested; the purities of the hit compounds were determined to be >80% by LC-MS analysis.
smiles,measurement,setting,value
CN1CCN(CCCN2c3ccccc3Sc3ccc(Cl)cc32)CC1 [Prochlorperazine],IC50,Tet(X4) [1],49.5 ± 24.9 µM
same,IC50,Tet(X4) [2],39.9 ± 7 µM
